## Assay results

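Rat S16 Schwann cells stably carrying a firefly luciferase reporter under a PMP22 intronic regulatory element; luminescence measured after 24 h of compound exposure. Seventeen-point concentration series from about 0.00016 to 58 µM. Potency is the AC50 from a fitted inhibition curve, the concentration giving half the maximal fitted effect; a lower value means a more potent inhibitor. Calls follow the activity score from curve class and fit: scores 40–100 are active, 1–39 inconclusive, 0 inactive; all rows here are inconclusive.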

Values are in nM. Every entry below has the call inconclusive. Only part of the assay is shown, chiefly results filed as inconclusive. A potency from a partial, single-point or poor curve is only a rough figure. Activity scores are not listed here.

compound,Potency (nM),curve
C#C[C@]1(O)CC[C@H]2[C@@H]3CCC4=CC(=O)CCC4=C3C=C[C@@]21CC,16136,"inhibitor, partial curve"
CN(C)[C@H]1C(=O)C(C(=O)NCN2CCCC2)=C(O)[C@]2(O)C(=O)C3=C(O)c4c(O)cccc4[C@@](C)(O)[C@H]3C[C@@H]12,109.5,"inhibitor, full curve, poor fit"
CCOC(=O)Nc1ccc(NCc2ccc(F)cc2)nc1N,11423,"inhibitor, partial curve, poor fit"
N=C(N)c1ccc(/C=C/c2ccc(C(=N)N)cc2O)cc1,36125,"inhibitor, single point"
O=C1NCN(c2ccccc2)C12CCN(CCCOc1ccc(F)cc1)CC2,22793,"inhibitor, partial curve"
CCCn1cnc2c1c(=O)n(CCCCC(C)=O)c(=O)n2C,20314,"inhibitor, partial curve"
Cn1cc(NC(=O)c2cc(NC(=O)c3cc(NC=O)cn3C)cn2C)cc1C(=O)NCCC(=N)N,36125,"inhibitor, single point"
CC(CN(C)C)CN1c2ccccc2Sc2ccc(C(F)(F)F)cc21 (stereo not given),36125,"inhibitor, partial curve"
CC1(C)NC(=O)N(c2ccc([N+](=O)[O-])c(C(F)(F)F)c2)C1=O,12817,"inhibitor, partial curve, poor fit"
CC[N+](CC)(CC)CC,20314,"inhibitor, full curve, poor fit"
NCC[C@H](O)C(=O)N[C@@H]1C[C@H](N)[C@@H](O[C@H]2O[C@H](CN)[C@@H](O)[C@H](O)[C@H]2O)[C@H](O)[C@H]1O[C@H]1O[C@H](CO)[C@@H](O)[C@H](N)[C@H]1O,9074,"inhibitor, partial curve, poor fit"
CCOc1ccc(NC(=S)Nc2ccc(OCC)cc2)cc1,5726,"inhibitor, partial curve"
c1ccc2c(c1)Sc1ccccc1N2CCN1CCCC1,322,"inhibitor, full curve, poor fit"
CCc1oc2ccccc2c1C(=O)c1cc(I)c(O)c(I)c1,32196,"inhibitor, partial curve, poor fit"
COC1C(OC(=O)/C=C/C=C/C=C/C=C/C(=O)O)CCC2(CO2)C1C1(C)OC1CC=C(C)C (stereo not given),3220,"inhibitor, partial curve"
CC[C@@H](CO)NC(=O)[C@@H]1C=C2c3cccc4[nH]cc(c34)C[C@H]2N(C)C1,18105,"inhibitor, full curve, poor fit"
O=C(OCC1OC(OC(=O)c2cc(O)c(O)c(OC(=O)c3cc(O)c(O)c(O)c3)c2)[C@@H](OC(=O)c2cc(O)c(O)c(OC(=O)c3cc(O)c(O)c(O)c3)c2)C(OC(=O)c2cc(O)c(O)c(OC(=O)c3cc(O)c(O)c(O)c3)c2)C1OC(=O)c1cc(O)c(O)c(OC(=O)c2cc(O)c(O)c(O)c2)c1)c1cc(O)c(O)c(OC(=O)c2cc(O)c(O)c(O)c2)c1 (stereo not given in full),28695,"inhibitor, partial curve"
O=c1n(CC2CO2)c(=O)n(CC2CO2)c(=O)n1CC1CO1 (stereo not given),28695,"inhibitor, partial curve, poor fit"
Cc1cc(O)cc2c1O[C@](C)(CCC[C@H](C)CCC[C@H](C)CCCC(C)C)CC2,1614,"inhibitor, partial curve, poor fit"

For reference, 2 entries once more:

compound,Potency (nM),curve
NCC[C@H](O)C(=O)N[C@@H]1C[C@H](N)[C@@H](O[C@H]2O[C@H](CN)[C@@H](O)[C@H](O)[C@H]2O)[C@H](O)[C@H]1O[C@H]1O[C@H](CO)[C@@H](O)[C@H](N)[C@H]1O,9074,"inhibitor, partial curve, poor fit"
CC[N+](CC)(CC)CC,20314,"inhibitor, full curve, poor fit"

Source: PubChem BioAssay AID624032 (NCATS, 2012).